Measured values published in the supplement of paper PMC8728848.
Some of the results follow.

What was measured:
Experiment in all cases: glycan array binding signal (z-score within array); higher = stronger binding
Details in all cases: glycan notation: IUPAC condensed, linker removed
Fuc(b1-3)GlcNAc = target: Fuc(b1-3)GlcNAc
In short: (§1)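 Columns mapping to the same glycan were averaged after glycan names were converted to IUPAC-condensed notation. The data come from 3228 arrays in the Consortium for Functional Glycomics database, limited to those with an available protein sequence. Binding is reported as a within-array Z-score averaged across arrays of one protein sequence and across linkers.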

Gal(a1-2)Gal = target: Gal(a1-2)Gal
In short: as §1

Gal(a1-3)Gal = target: Gal(a1-3)Gal
In short: as §1

Gal(a1-3)Gal(b1-3)GlcNAc = target: Gal(a1-3)Gal(b1-3)GlcNAc
In short: as §1

[1] = target: Gal(a1-3)Gal(b1-3)GlcNAc(b1-2)Man
In short: as §1

[2] = target: Gal(a1-3)Gal(b1-3)GlcNAc(b1-2)Man(a1-3)[Gal(a1-3)Gal(b1-3)GlcNAc(b1-2)Man(a1-6)]Man(b1-4)GlcNAc(b1-4)GlcNAc
In short: as §1

[3] = target: Gal(a1-3)Gal(b1-3)GlcNAc(b1-3)GalNAc
In short: as §1

[4] = target: Gal(a1-3)Gal(b1-3)GlcNAc(b1-6)GalNAc
In short: as §1

[5] = target: Gal(a1-3)Gal(b1-3)[Fuc(a1-4)]GlcNAc(b1-2)Man(a1-3)[Gal(a1-3)Gal(b1-3)[Fuc(a1-4)]GlcNAc(b1-2)Man(a1-6)]Man(b1-4)GlcNAc(b1-4)GlcNAc
In short: as §1

Gal(a1-3)Gal(b1-4)Glc = target: Gal(a1-3)Gal(b1-4)Glc
In short: as §1

Gal(a1-3)Gal(b1-4)GlcNAc = target: Gal(a1-3)Gal(b1-4)GlcNAc
In short: as §1

[6] = target: Gal(a1-3)Gal(b1-4)GlcNAc(b1-2)Man
In short: as §1

[7] = target: Gal(a1-3)Gal(b1-4)GlcNAc(b1-2)Man(a1-3)[Gal(a1-3)Gal(b1-4)GlcNAc(b1-2)Man(a1-6)]Man(b1-4)GlcNAc(b1-4)GlcNAc
In short: as §1

[8] = target: Gal(a1-3)Gal(b1-4)GlcNAc(b1-3)GalNAc
In short: as §1

[9] = target: Gal(a1-3)Gal(b1-4)GlcNAc(b1-6)GalNAc
In short: as §1

[10] = target: Gal(a1-3)Gal(b1-4)[Fuc(a1-3)]GlcNAc
In short: as §1

[11] = target: Gal(a1-3)Gal(b1-4)[Fuc(a1-3)]GlcNAc(b1-2)Man(a1-3)[Gal(a1-3)Gal(b1-4)[Fuc(a1-3)]GlcNAc(b1-2)Man(a1-6)]Man(b1-4)GlcNAc(b1-4)GlcNAc
In short: as §1

Gal(a1-3)GalNAc = target: Gal(a1-3)GalNAc
In short: as §1

[12] = target: Gal(a1-3)[Gal(a1-4)]Gal(b1-4)GlcNAc
In short: as §1

[13] = target: Gal(a1-4)Gal(b1-3)GlcNAc(b1-2)Man(a1-3)[Gal(a1-4)Gal(b1-3)GlcNAc(b1-2)Man(a1-6)]Man(b1-4)GlcNAc(b1-4)GlcNAc
In short: as §1

Gal(a1-4)Gal(b1-4)Glc = target: Gal(a1-4)Gal(b1-4)Glc
In short: as §1

Gal(a1-4)Gal(b1-4)GlcNAc = target: Gal(a1-4)Gal(b1-4)GlcNAc
In short: as §1

[14] = target: Gal(a1-4)Gal(b1-4)GlcNAc(b1-2)Man(a1-3)[Gal(a1-4)Gal(b1-4)GlcNAc(b1-2)Man(a1-6)]Man(b1-4)GlcNAc(b1-4)GlcNAc
In short: as §1

[15] = target: Gal(a1-4)Gal(b1-4)GlcNAc(b1-3)Gal(b1-4)Glc
In short: as §1

Gal(a1-4)GlcNAc = target: Gal(a1-4)GlcNAc
In short: as §1

Gal(a1-6)Glc = target: Gal(a1-6)Glc
In short: as §1

Gal(b1-2)Gal = target: Gal(b1-2)Gal
In short: as §1

Gal(b1-3)Gal = target: Gal(b1-3)Gal
In short: as §1

Gal(b1-3)Gal(b1-4)GlcNAc = target: Gal(b1-3)Gal(b1-4)GlcNAc
In short: as §1

[16] = target: Gal(b1-3)Gal(b1-4)GlcNAc(b1-2)Man(a1-3)[Gal(b1-3)Gal(b1-4)GlcNAc(b1-2)Man(a1-6)]Man(b1-4)GlcNAc(b1-4)GlcNAc
In short: as §1

Gal(b1-3)GalNAc = target: Gal(b1-3)GalNAc
In short: as §1

[17] = target: Gal(b1-3)GalNAc(a1-3)[Fuc(a1-2)]Gal(b1-4)Glc
In short: as §1

[18] = target: Gal(b1-3)GalNAc(a1-3)[Fuc(a1-2)]Gal(b1-4)GlcNAc
In short: as §1

Gal(b1-3)GalNAc(b1-3)Gal = target: Gal(b1-3)GalNAc(b1-3)Gal
In short: as §1

[19] = target: Gal(b1-3)GalNAc(b1-3)Gal(a1-4)Gal(b1-4)Glc
In short: as §1

[20] = target: Gal(b1-3)GalNAc(b1-4)Gal(b1-4)Glc
In short: as §1

[21] = target: Gal(b1-3)GalNAc(b1-4)[Neu5Ac(a2-3)]Gal(b1-4)Glc
In short: as §1

Gal(b1-3)GlcNAc = target: Gal(b1-3)GlcNAc
In short: as §1

[22] = target: Gal(b1-3)GlcNAc(a1-3)Gal(b1-4)GlcNAc
In short: as §1

[23] = target: Gal(b1-3)GlcNAc(a1-6)Gal(b1-4)GlcNAc
In short: as §1

Gal(b1-3)GlcNAc(b1-2)Man = target: Gal(b1-3)GlcNAc(b1-2)Man
In short: as §1

[24] = target: Gal(b1-3)GlcNAc(b1-2)Man(a1-3)[Gal(b1-3)GlcNAc(b1-2)Man(a1-6)]Man(b1-4)GlcNAc(b1-4)GlcNAc
In short: as §1

[25] = target: Gal(b1-3)GlcNAc(b1-2)Man(a1-3)[Gal(b1-3)GlcNAc(b1-2)Man(a1-6)]Man(b1-4)GlcNAc(b1-4)[Fuc(a1-6)]GlcNAc
In short: as §1

[26] = target: Gal(b1-3)GlcNAc(b1-2)Man(a1-3)[GlcNAc(b1-4)][Gal(b1-3)GlcNAc(b1-2)Man(a1-6)]Man(b1-4)GlcNAc(b1-4)GlcNAc
In short: as §1

[27] = target: Gal(b1-3)GlcNAc(b1-2)[Gal(b1-3)GlcNAc(b1-6)]Man(a1-6)[Gal(b1-3)GlcNAc(b1-2)Man(a1-3)]Man(b1-4)GlcNAc(b1-4)GlcNAc
In short: as §1

B1: BabA (Helicobacter pylori), O52269_HELPY (protein)
chain: AEDDGFYMSAGYQIGEAAQMVKNTKGIQELSDNYENLSNLLTRYSTLNTLIKLSADPSAVNAARENLGASAKNLIGDTKNSPAYQAVLLAINAAVGFWNVVGYVTQCGGNANGQKSTSSTTIFNNEPGYRSTSITCSLNGHMPGYYGPMSIENFKKLNEAYQILQTALKNGLPALKENNGTVNVTYSYTCSGEGNDNCSLQTTGVTNQNNGTKTETQTIDGKSVTTTISSKVVDSQ
Fuc(b1-3)GlcNAc
  glycan array binding signal (z-score): 0.195
Gal(a1-2)Gal
  glycan array binding signal (z-score): 0.151
Gal(a1-3)Gal
  glycan array binding signal (z-score): 0.62
Gal(a1-3)Gal(b1-3)GlcNAc
  glycan array binding signal (z-score): 0.003
[1]
  glycan array binding signal (z-score): -0.582
[2]
  glycan array binding signal (z-score): 0.717
[3]
  glycan array binding signal (z-score): -0.391
[4]
  glycan array binding signal (z-score): -0.646
[5]
  glycan array binding signal (z-score): 1.82
Gal(a1-3)Gal(b1-4)Glc
  glycan array binding signal (z-score): -0.338
Gal(a1-3)Gal(b1-4)GlcNAc
  glycan array binding signal (z-score): -0.497
[6]
  glycan array binding signal (z-score): 0.081
[7]
  glycan array binding signal (z-score): -0.16
[8]
  glycan array binding signal (z-score): -0.591
[9]
  glycan array binding signal (z-score): -0.564
[10]
  glycan array binding signal (z-score): -0.847
[11]
  glycan array binding signal (z-score): 0.242
Gal(a1-3)GalNAc
  glycan array binding signal (z-score): -0.334
[12]
  glycan array binding signal (z-score): -0.843
[13]
  glycan array binding signal (z-score): -0.164
Gal(a1-4)Gal(b1-4)Glc
  glycan array binding signal (z-score): -0.26
Gal(a1-4)Gal(b1-4)GlcNAc
  glycan array binding signal (z-score): 0.146
[14]
  glycan array binding signal (z-score): -0.028
[15]
  glycan array binding signal (z-score): 0.167
Gal(a1-4)GlcNAc
  glycan array binding signal (z-score): -0.104
Gal(a1-6)Glc
  glycan array binding signal (z-score): -0.485
Gal(b1-2)Gal
  glycan array binding signal (z-score): 0.59
Gal(b1-3)Gal
  glycan array binding signal (z-score): 0.209
Gal(b1-3)Gal(b1-4)GlcNAc
  glycan array binding signal (z-score): -0.322
[16]
  glycan array binding signal (z-score): 0.28
Gal(b1-3)GalNAc
  glycan array binding signal (z-score): -0.024
[17]
  glycan array binding signal (z-score): -0.915
[18]
  glycan array binding signal (z-score): -0.885
Gal(b1-3)GalNAc(b1-3)Gal
  glycan array binding signal (z-score): 0.308
[19]
  glycan array binding signal (z-score): 0.544
[20]
  glycan array binding signal (z-score): 0.303
[21]
  glycan array binding signal (z-score): 0.035
Gal(b1-3)GlcNAc
  glycan array binding signal (z-score): 0.011
[22]
  glycan array binding signal (z-score): -0.537
[23]
  glycan array binding signal (z-score): 0.39
Gal(b1-3)GlcNAc(b1-2)Man
  glycan array binding signal (z-score): -0.119
[24]
  glycan array binding signal (z-score): -0.37
[25]
  glycan array binding signal (z-score): -0.423
[26]
  glycan array binding signal (z-score): 0.444
[27]
  glycan array binding signal (z-score): 0.181
